# Data taken from PubChem BioAssay AID504444 (National Center for Advancing Translational Sciences (NCATS), 2011).
# Among all 360,000 compounds or so, about 7,500 (2.1%) were called active. This list was built around the results that the source calls inconclusive (neither active nor inactive); the mix of calls is not that of the screen. Calls follow the shape of the dose curve; as a rule, active = well fitted inhibition curve with a large enough effect; inconclusive = small, poorly fitted or top-dose-only effect, or effect the other way; inactive = flat fitted curve, though single readings scatter. Potencies beside an inconclusive call are fits to weak or partial responses and may not hold up.
# Test: Nrf2 qHTS screen for inhibitors; also: nearly all actives have a fitted effect of over 60% in size
# Details: A549 ARE-Fluc reporter, luciferase luminescence, 18-24 h; series mostly up to 46 µM
# How it was run: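 Reporter: ARE-Fluc in A549. Exposure: 18-24 h, 37 °C, 5% CO2, 5% FBS OPTI-MEM. Readouts: fluorescent cytotoxicity (CellTiter-Fluor), then luminescent Nrf2 signal after BugLite.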
# Potency is read from the fitted curve at half-maximal effect.
row,Structure (SMILES),Potency
1,Cn1c(NCc2ccco2)nc2c1c(=O)n(Cc1ccc(Cl)cc1)c(=O)n2C,"inconclusive: 20.6 µM [falling, single point]"
2,COc1cccc(CCn2c(N)cc(=O)[nH]c2=S)c1OC,inactive
3,Cc1nonc1NC(=O)CSc1nc(C2CCCCC2)nc2ccccc12,"inconclusive: 9.2 µM [falling, partial curve, poor fit]"
4,Cc1nc(N)sc1N=Nc1ccccc1C(F)(F)F,"inconclusive: 0.58 µM [activator, partial curve, poor fit]"
5,Cn1nc([N+](=O)[O-])nc1S(C)(=O)=O,active: 23.1 µM
6,O=C(c1ccc(S(=O)(=O)NCc2ccco2)cc1)N1CCN(c2ccc(F)cc2)CC1,"inconclusive: 20.6 µM [falling, single point]"
7,CC1CCc2c(sc(NC(=O)/C=C/c3cccs3)c2C(=O)O)C1 (stereo not drawn),active: 6.51 µM
8,COCCn1cnc2c1c(=O)n(Cc1ccc(Br)cc1)c(=O)n2Cc1ccccc1,"inconclusive: 29.1 µM [falling, single point]"
9,CCOc1ccccc1OCCCC(=O)N1CCN(S(=O)(=O)c2ccc(C)cc2C)CC1,"inconclusive: 29.1 µM [falling, single point]"
10,CCCNC(=O)C1CCC(Cn2c(=O)c3sccc3n(CC(=O)N(CC)CC)c2=O)CC1 (stereo not drawn),"inconclusive: 6.51 µM [falling, single point]"
11,CC(C)CC(=O)Nc1ccc(Nc2ccccc2)cc1,"inconclusive: 29.1 µM [falling, single point]"
12,Cc1ccccc1NC(=O)c1cc2ccccn2n1,"inconclusive: 23.1 µM [activator, single point]"
13,COc1cc(OC)cc(C(=O)Nc2nnc(-c3cccnc3)o2)c1,"inconclusive: 4.11 µM [falling, full curve, poor fit]"
14,Cc1c(C(=O)NCc2ccc(F)cc2)oc2ccc(S(=O)(=O)N3CCOCC3)cc12,"inconclusive: 23.1 µM [falling, partial curve, poor fit]"
15,CCOc1ccccc1C(=O)NCC(=O)NCCCc1ccccc1,"inconclusive: 11.6 µM [falling, partial curve, poor fit]"
16,CN(C)/[N+]([O-])=N/Oc1cc(ON=[N+]([O-])N2CCN(c3ncccn3)CC2)c([N+](=O)[O-])cc1[N+](=O)[O-],"inconclusive: 0.13 µM [activator, full curve, poor fit]"
17,CC(=O)NC(NC(=S)Nc1cccc(Br)c1)C(Cl)(Cl)Cl (stereo not drawn),inactive
18,C=CCn1cc(/C=N/NC(=O)COc2cccc3cccnc23)c2ccccc21,"inconclusive: 29.1 µM [activator, single point]"
19,CCCC1=C(C(=O)OCC)C(c2cc(Cl)cc(OC)c2OCc2ccccc2)NC(=O)N1 (stereo not drawn),"inconclusive: 29.1 µM [falling, single point]"
20,CCCCC(OC(=O)CNC(=O)c1ccccc1)C(=O)Nc1cc(C(F)(F)F)ccc1Cl (stereo not drawn),"inconclusive: 6.51 µM [falling, partial curve, poor fit]"
21,CCCOc1ccc(/C=N/Nc2ccccn2)cc1OC,"inconclusive: 4.11 µM [activator, partial curve]"

# Already shown: an excerpt of the list.
row,Structure (SMILES),Potency
9,CCOc1ccccc1OCCCC(=O)N1CCN(S(=O)(=O)c2ccc(C)cc2C)CC1,"inconclusive: 29.1 µM [falling, single point]"
10,CCCNC(=O)C1CCC(Cn2c(=O)c3sccc3n(CC(=O)N(CC)CC)c2=O)CC1 (stereo not drawn),"inconclusive: 6.51 µM [falling, single point]"
11,CC(C)CC(=O)Nc1ccc(Nc2ccccc2)cc1,"inconclusive: 29.1 µM [falling, single point]"

# Carrying on:

row,Structure (SMILES),Potency
1,O=C(CSc1nc2ccccc2c(=O)n1NC(=O)c1ccccc1)c1ccccc1,"inconclusive: 0.366 µM [activator, full curve]"
2,COc1ccc(C(=S)N2CCOCC2)cc1OS(=O)(=O)c1ccc(Br)cc1,"inconclusive: 29.1 µM [falling, single point]"
3,c1ccc(OCc2nnc3sc(-c4cccs4)nn23)cc1,"inconclusive: 29.1 µM [falling, partial curve, poor fit]"
4,Cc1ccc(NC(=O)CN2C(=O)COc3ccc(S(=O)(=O)N4CCCCC4)cc32)cc1Cl,"inconclusive: 29.1 µM [falling, single point]"
5,CCOc1cc(CNCCSc2nnnn2C)ccc1OCc1ccc(Cl)cc1Cl,inactive
6,CC(C)n1nc(C(=O)NCc2ccc3c(c2)OCO3)c2ccccc2c1=O,"inconclusive: 29.1 µM [falling, single point]"
7,Cc1ccc(S(=O)(=O)/N=C(/Nc2ccc([N+](=O)[O-])cc2[N+](=O)[O-])c2ccccc2)cc1,"inconclusive: 20.6 µM [falling, single point]"
8,C=CCNc1oc(C2CCCC2)nc1C#N,inactive
9,Cc1coc(C)c1C(=O)Nc1ccc2ccccc2c1,"inconclusive: 4.11 µM [activator, partial curve]"
10,COc1ccc(CN(C)C(=O)c2cccc(NC(=O)CC3SC(N4CCCCC4)=NC3=O)c2)c(OC)c1 (stereo not drawn),active: 8.2 µM
11,O=C(CCS(=O)(=O)c1ccc(Cl)cc1)N1CCN(c2ccc(F)cc2)CC1,"inconclusive: 23.1 µM [falling, partial curve, poor fit]"
12,COc1cccc(C(=O)Nc2nc3c(s2)CCCC3)c1,"inconclusive: 0.517 µM [activator, full curve]"
13,CC(O)CNc1nc2c(c(=O)n(C)c(=O)n2C)n1CCc1ccccc1 (stereo not drawn),"inconclusive: 29.1 µM [falling, single point]"
14,O=C(CN1C(=O)NC2(CCCC2)C1=O)N1CCN(c2cccc(C(F)(F)F)c2)CC1,"inconclusive: 8.2 µM [falling, partial curve, poor fit]"
15,CCSc1ccc([C@@H]2[C@H]3C(=O)N(C)C(=O)[C@H]3[C@]3(C(=O)OC)CCCCN23)cc1OC,"inconclusive: 25.9 µM [falling, partial curve, poor fit]"
16,Cc1ccc(CNC(=O)c2cc3cc(C)ccc3n2C)cc1,"inconclusive: 6.51 µM [falling, single point]"
17,COc1ccc(-n2c(=O)c3ccc(C(=O)NCc4ccc(C)cc4)cc3n(CC(=O)Nc3cccc(F)c3)c2=O)cc1,inactive
18,CCOC(=O)c1c(NC(=O)Nc2ccc(F)cc2)sc2c1CCN(C)C2,"inconclusive: 29.1 µM [activator, single point]"
19,CCCCN1C(=O)C(O)=C(C(C)=O)C1c1ccc(OC)cc1OC (stereo not drawn),inactive
20,Cc1ccc(CN2CCC(CNC(=O)Nc3ccccc3F)CC2)cc1,"inconclusive: 2.59 µM [activator, partial curve, poor fit]"
21,CCn1c2ccccc2c2cc(NC(=O)CN(C)CC(=O)Nc3ccc(N4CCOCC4)cc3)ccc21,"inconclusive: 29.1 µM [falling, single point]"

row,Structure (SMILES),Potency
1,Cc1ccc2c(c1)cc(C(=O)N1CCN(c3ccccn3)CC1)n2C,"inconclusive: 4.61 µM [falling, partial curve]"
2,Cc1cc(C(F)(F)F)c2c(N)c(C(=O)NC3CC3)sc2n1,"inconclusive: 8.2 µM [falling, partial curve, poor fit]"
3,O=C(CCc1nnc(CCCc2ccccc2)o1)NC(C1CC1)C1CC1,"inconclusive: 7.31 µM [activator, partial curve]"
4,CCCOc1ccc(-c2nc(OCC)c3ccccc3n2)cc1,"inconclusive: 0.92 µM [activator, full curve, poor fit]"
5,O=c1c2ccccc2sc2ccccc12,"inconclusive: 23.1 µM [activator, single point]"
6,CCc1ccc(NC(=O)Cc2c(C(=O)O)n(C)c3ccccc23)cc1,"inconclusive: 0.291 µM [activator, full curve, poor fit]"
7,COc1ccc(OC)c(NC(=O)c2cc(-c3cc(C)ccc3O)n[nH]2)c1,"inconclusive: 29.1 µM [falling, single point]"
8,Cn1c(SCC(=O)Nc2cccc(F)c2)nnc1-c1cccnc1,inactive
9,Cc1c(CCC(=O)N[C@@H](C)C(=O)O)c(=O)oc2cc3oc4c(c3cc12)CCCC4,"inconclusive: 3.66 µM [falling, partial curve, poor fit]"
10,CC1(c2ccccc2)NC(=O)N(CC(=O)Nc2cc(C(F)(F)F)ccc2N2CCCCC2)C1=O (stereo not drawn),"inconclusive: 25.9 µM [falling, single point]"
11,COc1ccc(Cn2c(SCc3ccc(C(=O)NC4CCCCC4)cc3)nc3cccnc32)cc1,active: 18.4 µM
12,CC(=O)c1cccc(-n2nnnc2SCC(=O)Nc2ccccc2N2CCCCC2)c1,active: 23.1 µM
13,Cc1cc(C)n(C(=O)CNC(=O)c2ccccc2F)n1,inactive
14,CC(=O)C1=C(C)NC(SCC(=O)Nc2nc3ccccc3s2)=C(C#N)C1c1ccc(Cl)cc1 (stereo not drawn),"inconclusive: 29.1 µM [falling, single point]"
15,CC(C)(C)N=C1NN=C(c2ccc(Cl)cc2)CS1,"inconclusive: 2.59 µM [activator, full curve]"
16,Cc1cccc(NC(=O)c2cccc(N3C(=O)C4C5C=CC(C6CC56)C4C3=O)c2)c1 (stereo not drawn),"inconclusive: 29.1 µM [falling, single point]"
17,COCc1c(C(=O)N/N=C(/C)c2ccc(OCc3ccccc3)cc2)nnn1-c1nonc1N,"inconclusive: 18.4 µM [activator, single point]"
18,COc1ccc(-c2nn(-c3ccccc3)cc2/C=C/C(=O)N2CCN(c3ccccn3)CC2)cc1,"inconclusive: 32.6 µM [falling, single point]"
19,CCOC(=O)C1CCN(C2CCN(C(=O)c3oc4c(C)c(C)ccc4c3C)CC2)CC1,"inconclusive: 20.6 µM [activator, partial curve]"
20,O=S(=O)(c1ccccc1F)N(Cc1ccco1)Cc1nnc(-c2ccccc2Br)o1,"inconclusive: 25.9 µM [falling, single point]"
21,CC(=O)Nc1ccc(S(=O)(=O)N2CCC(N3CCN(Cc4ccc(C)cc4)C(=O)C3=O)CC2)cc1,"inconclusive: 18.4 µM [activator, single point]"
